Tested on: Sprague Dawley rats
Assay type: in vivo, rat
Settings: PAN rats; not significant vs Cont
Experimental: Adult male Sprague Dawley rats (200-225 g, Charles River) were housed under a 12-h light/dark cycle with free access to normal rat chow and water. Kidney injury was induced by a single injection of puromycin […] (PAN) (125 mg/kg body weight, i.p.) while saline-injected rats served as controls (Cont). Eight days after injection, rats were sacrificed and blood, urine, and tissues were harvested. We also studied adult male (12 weeks old) Nphs1-hCD25 transgenic (NEP25, C57 bl/6 background) mice expressing human CD25 on podocytes can be selectively injured by injection of recombinant immunotoxin, anti-Tac (Fv)-PE38 (LMB2, 1 ng/g BW, i.v. generously provided by Dr. Ira Pastan) that results in proteinuria. […]
Albumin (Exocell), apoAI (Mybiosource), sphingosine-1 phosphate (S1P) (Mybiosource) and VEGF-C levels (Mybiosource) were measured by ELISA. Albuminuria was measured as urine albumin-to-creatinine ratio (ACR) (Nephrat II, Exocell) and QuantiChrom™ Creatinine Assay Kit (Bioassay Systems), respectively. Plasma and lymph total cholesterol and triglycerides were measured enzymatically (Cliniqa). […] Lipoprotein particle size was evaluated by NMR methodology (Liposcience). […] Total IsoLG-protein adduct by LC/MS was measured as IsoLG-lysine after complete proteolytic digestion of lymph samples.

CN(C)c1ncnc2c1ncn2[C@@H]1O[C@H](CO)[C@@H](N)[C@H]1O [PAN, puromycin aminoglycoside]
ileal apoAI protein level: 1.06 ± 0.06 µg/mg

— US20230355549A1, “METHOD OF PREVENTING KIDNEY INJURY DISRUPTION OF INTESTINAL LYMPHATICS” (Vanderbilt University, priority 2020, published 2023)
